# Measurements: publication PMC9821907, “Synthesis and Antiprotozoal Activity of Azabicyclo-Nonane Pyrimidine Hybrids” (Molecules, 2022)
# Where “and” joins values, the source holds several entries; their conditions need not be identical. Equal entries are not always repeated. Where two headings read alike, the source gives them in different places. Marks after values point to notes of the source that are not given here.
# Experiments:
# [1] = system: P. falciparum K1; design: method as in PMID 25746816; conditions: L-6 cytotoxicity versus P. falciparum K1; ref [12]; cited from earlier work
# [2] = system: T. brucei rhodesiense STIB900; design: method as in PMID 25746816; conditions: L-6 cytotoxicity versus T. b. rhodesiense; ref [12]; cited from earlier work
# [3] = system: P. falciparum NF54; test: In vitro microplate 3H-hypoxanthine incorporation assay against P. falciparum NF54; type: cell-based, Plasmodium falciparum; conditions: L-6 cytotoxicity versus P. falciparum NF54
# Protocol: (§1) Compounds were tested for their activities against Plasmodium falciparum NF54 (sensitive to chloroquine) and Trypanosoma brucei rhodesiense STIB900, via serial dilution assays. Furthermore, selected compounds were tested against the K1 strain of Plasmodium falciparum (resistant against chloroquine, sulfadoxine and pyrimethamine). Their cytotoxicity was determined with rat skeletal myoblasts (L-6 cells).
# (§2) In vitro activity against erythrocytic stages of P. falciparum was determined using a ^3H-hypoxanthine incorporation assay using the drug sensitive NF54 strain [27] or the chloroquine- and pyrimethamine-resistant K1 strain [28]. Compounds were dissolved in DMSO at 10 mg/mL and further diluted in medium before being added to parasite cultures incubated in RPMI 1640 medium without hypoxanthine, supplemented with HEPES (5.94 g/L), NaHCO3 (2.1 g/L), neomycin (100 U/mL), Albumax® (5 g/L) and washed human red cells A+ at 2.5% haematocrit (0.3% parasitaemia). Serial drug dilutions of eleven 3-fold dilution steps covering a range from 100 to 0.002 μg/mL were prepared. The 96-well plates were incubated in a humidified atmosphere at 37 °C; 4% CO2, 3% O2, 93% N2. After 48 h, 0.05 mL of ^3H-hypoxanthine (= 0.5 μCi) was added to each well of the plate. The plates were incubated for a further 24 h under the same conditions. The plates were then harvested with a Betaplate™ cell harvester (Wallac, Zurich, Switzerland), and the red blood cells transferred onto a glass fibre filter then washed with distilled water. The dried filters were inserted into a plastic foil with 10 mL of scintillation fluid, and counted in a Betaplate™ liquid scintillation counter (Wallac, Zurich, Switzerland). IC50 values were calculated from sigmoidal inhibition curves by linear regression using Microsoft Excel. Chloroquine (Sigma C6628) was used as control.
# [4] = system: T. brucei rhodesiense STIB900; test: In vitro microplate resazurin assay against T. brucei rhodesiense; type: cell-based, Trypanosoma brucei rhodesiense; conditions: L-6 cytotoxicity versus T. b. rhodesiense
# Protocol: as §1
# Minimum essential medium (50 µL) supplemented with 25 mM HEPES, 1g/L additional glucose, 1% MEM non-essential amino acids (100×), 0.2 mM 2-mercaptoethanol, 1mM Na-pyruvate and 15% heat-inactivated horse serum was added to each well of a 96-well microtiter plate. Serial drug dilutions of eleven 3-fold dilution steps covering a range from 100 to 0.002 μg/mL were prepared. Then 4 × 10^3 bloodstream forms of T. b. rhodesiense STIB 900 in 50 µL was added to each well and the plate incubated at 37 °C under a 5 % CO2 atmosphere for 70 h. Next, 10 µL resazurin solution (resazurin, 12.5 mg in 100 mL double-distilled water) was added to each well and incubation continued for a further 2–4 h. Then the plates were read with a Spectramax Gemini XS microplate fluorometer (Molecular Devices Cooperation, Sunnyvale, CA, USA) using an excitation wave length of 536 nm and an emission wave length of 588 nm. Data were analyzed with the graphic programme Softmax Pro (Molecular Devices Cooperation, Sunnyvale, CA, USA), which calculated IC50 values by linear regression and 4-parameter logistic regression from the sigmoidal dose inhibition curves. Melarsoprol (Arsobal Sanofi-Aventis, received from WHO) was used as control.
# [5] = system: P. falciparum K1; test: In vitro microplate 3H-hypoxanthine incorporation assay against P. falciparum K1; type: cell-based, Plasmodium falciparum; conditions: L-6 cytotoxicity versus P. falciparum K1
# Protocol: as §1, §2
Compound,S.I. = IC50 (Cyt.)/IC50 (P.f.K1) [1],S.I. = IC50 (Cyt.)/IC50 (T.b.r.) [2],S.I. = IC50 (Cyt.)/IC50 (P.f.NF54) [3],S.I. = IC50 (Cyt.)/IC50 (T.b.r.) [4],S.I. = IC50 (Cyt.)/IC50 (P.f.K1) [5]
1-(piperidin-1-yl)-3-azabicyclononane [Compound 3],162.9 ^d,60.5 ^d,–,–,–
1-(pyrrolidin-1-yl)-3-azabicyclononane [Compound 4],764.8 ^d,72.90 ^d,1013,–,–
5-(piperidin-1-yl)-2-azabicyclo-nonane [Compound 1],140.2 ^d,13.70 ^d,–,–,–
5-(pyrrolidin-1-yl)-2-azabicyclononane [Compound 2],–,103.0 ^d,–,–,–
Cc1cc(N2CC3C(c4ccccc4)CC(N4CCCCC4)(CC3c3ccccc3)C2)nc(N)n1 (racemic) [Compound 7],–,–,–,13.96,103.6–155.6 and 155.6
Cc1cc(N2CC3C(c4ccccc4)CC(N4CCCC4)(CC3c3ccccc3)C2)nc(N)n1 (racemic) [Compound 8],–,–,72.3,13.91,–
Nc1cc(N2CC3C(c4ccccc4)CC(N4CCCCC4)(CC3c3ccccc3)C2)nc(N)n1 (racemic) [Compound 11],–,–,188.3,21.54,49.51
Nc1cc(N2CC3C(c4ccccc4)CC(N4CCCC4)(CC3c3ccccc3)C2)nc(N)n1 (racemic) [Compound 12],–,–,–,11.76,64.87
"Cc1cc(N2CC3C(c4ccccc4)CC(N4CCCCC4)(CC3c3ccccc3)C2)nc(Cl)n1 (racemic) [Compound 15, rac-(7R,8R)-3-(2-chloro-6-methylpyrimidin-4-yl)-6,9-diphenyl-1-(piperidin-1-yl)-3-azabicyclo[3.2.2]nonane]",–,–,18.23,2.86,13.09
"Cc1cc(N2CC3C(c4ccccc4)CC(N4CCCC4)(CC3c3ccccc3)C2)nc(Cl)n1 (racemic) [Compound 16, rac-(7R,8R)-3-(2-chloro-6-methylpyrimidin-4-yl)-6,9-diphenyl-1-(pyrrolidin-1-yl)-3-azabicyclo[3.2.2]nonane]",–,–,44.63,2.91,42.97
"Cc1cc(N2CC3C(c4ccccc4)CC(N4CCCCC4)(CC3c3ccccc3)C2)nc(N2CCCC2)n1 (racemic) [Compound 19, rac-(7R,8R)-3-[6-methyl-2-(pyrrolidin-1-yl)pyrimidin-4-yl]-6,9-diphenyl-1-(piperidin-1-yl)-3-azabicyclo[3.2.2]nonane]",–,–,11.05,18.49,84.23
"Cc1cc(N2CC3C(c4ccccc4)CC(N4CCCC4)(CC3c3ccccc3)C2)nc(N2CCCC2)n1 (racemic) [Compound 20, rac-(7R,8R)-3-[6-methyl-2-(pyrrolidin-1-yl)pyrimidin-4-yl]-6,9-diphenyl-1-(pyrrolidin-1-yl)-3-azabicyclo[3.2.2]nonane]",–,–,47.82,5.44,47.95
"Cc1cc(N2CC3C(c4ccccc4)CC(N4CCCCC4)(CC3c3ccccc3)C2)nc(N2CCCCC2)n1 (racemic) [Compound 23, rac-(7R,8R)-3-[6-methyl-2-(piperidin-1-yl)pyrimidin-4-yl]-6,9-diphenyl-1-(piperidin-1-yl)-3-azabicyclo[3.2.2]nonane]",–,–,26.33,4.73,28.04
"Cc1cc(N2CC3C(c4ccccc4)CC(N4CCCC4)(CC3c3ccccc3)C2)nc(N2CCCCC2)n1 (racemic) [Compound 24, rac-(7R,8R)-3-[6-methyl-2-(piperidin-1-yl)pyrimidin-4-yl]-6,9-diphenyl-1-(pyrrolidin-1-yl)-3-azabicyclo[3.2.2]nonane]",–,–,16.31,42.63,–
"CCN(CC)CCCC(C)Nc1ccnc2cc(Cl)ccc12 (stereo not shown) [CQ, chloroquine, reference compound]",–,–,23313,–,558.4
"Nc1nc(N)nc(Nc2ccc([As]3SCC(CO)S3)cc2)n1 (stereo not shown) [MEL, melarsoprol, reference compound]",–,–,–,778.0,–
